# Assay results as given in the supplement of paper PMC7666118.
# Protein sequences, listed by entry. Tags and fused reporters are not part of them. Lines headed by an entry give the natural chain unless they say otherwise; changes in a name come on top.
# UniProt Q13435: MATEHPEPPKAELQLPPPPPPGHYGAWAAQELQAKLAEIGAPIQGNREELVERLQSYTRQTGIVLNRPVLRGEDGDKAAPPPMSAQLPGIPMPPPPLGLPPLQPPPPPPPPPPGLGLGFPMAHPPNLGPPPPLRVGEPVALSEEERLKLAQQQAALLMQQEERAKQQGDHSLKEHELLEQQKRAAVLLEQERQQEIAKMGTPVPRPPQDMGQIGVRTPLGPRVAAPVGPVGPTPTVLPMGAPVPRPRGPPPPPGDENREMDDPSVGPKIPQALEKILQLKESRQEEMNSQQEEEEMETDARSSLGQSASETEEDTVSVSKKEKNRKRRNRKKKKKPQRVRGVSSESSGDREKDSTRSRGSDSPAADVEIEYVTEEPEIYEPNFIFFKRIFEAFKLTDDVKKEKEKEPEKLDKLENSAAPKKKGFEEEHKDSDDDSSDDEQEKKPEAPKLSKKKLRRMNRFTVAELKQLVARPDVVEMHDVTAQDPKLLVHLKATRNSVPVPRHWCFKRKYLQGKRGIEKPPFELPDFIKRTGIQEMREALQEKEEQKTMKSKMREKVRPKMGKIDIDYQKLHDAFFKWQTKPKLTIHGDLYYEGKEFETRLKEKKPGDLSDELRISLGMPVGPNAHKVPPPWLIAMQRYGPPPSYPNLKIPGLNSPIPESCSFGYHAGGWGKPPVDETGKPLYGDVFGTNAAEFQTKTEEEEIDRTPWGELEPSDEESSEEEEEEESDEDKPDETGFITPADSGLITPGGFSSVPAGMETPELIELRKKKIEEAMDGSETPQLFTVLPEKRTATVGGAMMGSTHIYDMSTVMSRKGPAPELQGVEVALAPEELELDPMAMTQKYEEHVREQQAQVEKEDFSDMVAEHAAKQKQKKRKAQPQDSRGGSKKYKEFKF
# UniProt P12235: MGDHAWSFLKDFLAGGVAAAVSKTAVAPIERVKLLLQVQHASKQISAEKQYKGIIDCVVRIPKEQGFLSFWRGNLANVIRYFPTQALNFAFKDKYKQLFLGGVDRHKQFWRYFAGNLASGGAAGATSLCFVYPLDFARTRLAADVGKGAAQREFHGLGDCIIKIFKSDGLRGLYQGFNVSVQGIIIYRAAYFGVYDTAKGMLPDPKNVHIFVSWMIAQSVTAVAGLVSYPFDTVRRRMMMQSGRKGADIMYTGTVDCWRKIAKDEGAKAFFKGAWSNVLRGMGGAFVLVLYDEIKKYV
# UniProt Q99808: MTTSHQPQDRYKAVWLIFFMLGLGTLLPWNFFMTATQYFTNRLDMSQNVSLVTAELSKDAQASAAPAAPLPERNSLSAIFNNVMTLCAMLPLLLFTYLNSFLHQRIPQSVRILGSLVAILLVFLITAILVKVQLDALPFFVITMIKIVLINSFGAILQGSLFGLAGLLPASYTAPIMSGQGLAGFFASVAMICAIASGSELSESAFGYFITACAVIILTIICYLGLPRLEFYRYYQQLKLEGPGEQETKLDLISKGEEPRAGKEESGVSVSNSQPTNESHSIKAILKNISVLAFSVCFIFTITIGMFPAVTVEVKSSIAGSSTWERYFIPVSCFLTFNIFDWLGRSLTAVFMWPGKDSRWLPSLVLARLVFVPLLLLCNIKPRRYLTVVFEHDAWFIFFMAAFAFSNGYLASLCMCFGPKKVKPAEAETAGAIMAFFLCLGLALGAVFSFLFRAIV
# UniProt O00161: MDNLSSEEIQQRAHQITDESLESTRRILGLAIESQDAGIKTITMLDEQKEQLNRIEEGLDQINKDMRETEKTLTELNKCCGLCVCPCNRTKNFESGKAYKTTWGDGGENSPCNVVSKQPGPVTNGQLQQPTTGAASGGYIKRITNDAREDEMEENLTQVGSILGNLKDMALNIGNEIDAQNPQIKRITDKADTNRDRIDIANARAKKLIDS
# UniProt Q9Y2D2: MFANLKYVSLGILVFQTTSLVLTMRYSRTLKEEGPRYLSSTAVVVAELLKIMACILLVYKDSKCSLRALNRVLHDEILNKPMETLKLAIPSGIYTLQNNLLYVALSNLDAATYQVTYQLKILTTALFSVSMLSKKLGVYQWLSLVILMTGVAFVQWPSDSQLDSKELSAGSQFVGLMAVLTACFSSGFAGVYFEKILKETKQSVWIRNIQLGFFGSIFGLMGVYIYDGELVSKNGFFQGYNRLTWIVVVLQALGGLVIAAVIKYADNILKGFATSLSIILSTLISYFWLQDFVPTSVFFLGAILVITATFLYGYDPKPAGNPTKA
# UniProt P52788: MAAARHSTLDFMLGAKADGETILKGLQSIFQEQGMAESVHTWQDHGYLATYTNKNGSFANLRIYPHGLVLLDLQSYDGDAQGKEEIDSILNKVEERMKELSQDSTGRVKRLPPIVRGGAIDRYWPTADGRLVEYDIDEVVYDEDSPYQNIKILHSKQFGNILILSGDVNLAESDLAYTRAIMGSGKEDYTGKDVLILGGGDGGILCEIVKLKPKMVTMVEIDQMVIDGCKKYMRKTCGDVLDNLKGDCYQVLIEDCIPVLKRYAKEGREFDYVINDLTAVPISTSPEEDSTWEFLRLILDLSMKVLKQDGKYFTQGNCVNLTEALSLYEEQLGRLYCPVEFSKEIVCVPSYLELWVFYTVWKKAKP
# UniProt O75746: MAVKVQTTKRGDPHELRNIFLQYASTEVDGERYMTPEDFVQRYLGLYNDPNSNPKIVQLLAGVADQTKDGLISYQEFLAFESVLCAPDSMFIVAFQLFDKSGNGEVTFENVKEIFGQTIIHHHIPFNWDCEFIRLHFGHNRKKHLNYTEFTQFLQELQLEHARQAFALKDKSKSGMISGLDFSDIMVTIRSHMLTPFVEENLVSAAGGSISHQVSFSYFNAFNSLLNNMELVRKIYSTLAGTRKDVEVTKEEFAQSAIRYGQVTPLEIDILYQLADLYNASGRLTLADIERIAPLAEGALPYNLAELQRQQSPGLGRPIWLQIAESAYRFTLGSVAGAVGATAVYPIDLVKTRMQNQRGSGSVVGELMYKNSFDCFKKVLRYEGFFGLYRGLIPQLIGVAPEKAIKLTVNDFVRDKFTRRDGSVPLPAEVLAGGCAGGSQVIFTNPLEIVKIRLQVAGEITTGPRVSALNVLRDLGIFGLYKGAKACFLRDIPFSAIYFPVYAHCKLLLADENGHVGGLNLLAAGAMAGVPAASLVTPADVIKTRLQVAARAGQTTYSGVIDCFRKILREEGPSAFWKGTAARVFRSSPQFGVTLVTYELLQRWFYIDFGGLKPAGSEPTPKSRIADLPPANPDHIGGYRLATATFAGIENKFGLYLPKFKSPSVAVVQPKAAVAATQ
# UniProt Q96T83: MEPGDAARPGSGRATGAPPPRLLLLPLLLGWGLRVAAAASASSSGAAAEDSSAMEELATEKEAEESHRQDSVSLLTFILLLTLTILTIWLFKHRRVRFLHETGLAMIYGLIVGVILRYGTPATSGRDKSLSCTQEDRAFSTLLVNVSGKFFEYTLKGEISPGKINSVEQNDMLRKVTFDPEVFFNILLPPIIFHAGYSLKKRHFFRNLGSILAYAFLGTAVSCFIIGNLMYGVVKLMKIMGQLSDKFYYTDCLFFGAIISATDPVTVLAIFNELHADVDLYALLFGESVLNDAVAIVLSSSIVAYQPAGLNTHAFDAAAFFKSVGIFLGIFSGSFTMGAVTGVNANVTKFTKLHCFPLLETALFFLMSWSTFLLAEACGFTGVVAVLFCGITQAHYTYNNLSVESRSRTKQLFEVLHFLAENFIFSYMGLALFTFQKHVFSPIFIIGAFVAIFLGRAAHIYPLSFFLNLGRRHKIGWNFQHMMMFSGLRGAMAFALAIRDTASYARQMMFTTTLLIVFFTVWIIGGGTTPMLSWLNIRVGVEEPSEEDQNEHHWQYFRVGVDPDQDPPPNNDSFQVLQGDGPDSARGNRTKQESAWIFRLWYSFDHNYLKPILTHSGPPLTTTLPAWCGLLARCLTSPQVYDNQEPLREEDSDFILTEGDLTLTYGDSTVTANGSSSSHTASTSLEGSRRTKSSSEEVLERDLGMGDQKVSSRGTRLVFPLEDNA
# UniProt O75643, whole entry: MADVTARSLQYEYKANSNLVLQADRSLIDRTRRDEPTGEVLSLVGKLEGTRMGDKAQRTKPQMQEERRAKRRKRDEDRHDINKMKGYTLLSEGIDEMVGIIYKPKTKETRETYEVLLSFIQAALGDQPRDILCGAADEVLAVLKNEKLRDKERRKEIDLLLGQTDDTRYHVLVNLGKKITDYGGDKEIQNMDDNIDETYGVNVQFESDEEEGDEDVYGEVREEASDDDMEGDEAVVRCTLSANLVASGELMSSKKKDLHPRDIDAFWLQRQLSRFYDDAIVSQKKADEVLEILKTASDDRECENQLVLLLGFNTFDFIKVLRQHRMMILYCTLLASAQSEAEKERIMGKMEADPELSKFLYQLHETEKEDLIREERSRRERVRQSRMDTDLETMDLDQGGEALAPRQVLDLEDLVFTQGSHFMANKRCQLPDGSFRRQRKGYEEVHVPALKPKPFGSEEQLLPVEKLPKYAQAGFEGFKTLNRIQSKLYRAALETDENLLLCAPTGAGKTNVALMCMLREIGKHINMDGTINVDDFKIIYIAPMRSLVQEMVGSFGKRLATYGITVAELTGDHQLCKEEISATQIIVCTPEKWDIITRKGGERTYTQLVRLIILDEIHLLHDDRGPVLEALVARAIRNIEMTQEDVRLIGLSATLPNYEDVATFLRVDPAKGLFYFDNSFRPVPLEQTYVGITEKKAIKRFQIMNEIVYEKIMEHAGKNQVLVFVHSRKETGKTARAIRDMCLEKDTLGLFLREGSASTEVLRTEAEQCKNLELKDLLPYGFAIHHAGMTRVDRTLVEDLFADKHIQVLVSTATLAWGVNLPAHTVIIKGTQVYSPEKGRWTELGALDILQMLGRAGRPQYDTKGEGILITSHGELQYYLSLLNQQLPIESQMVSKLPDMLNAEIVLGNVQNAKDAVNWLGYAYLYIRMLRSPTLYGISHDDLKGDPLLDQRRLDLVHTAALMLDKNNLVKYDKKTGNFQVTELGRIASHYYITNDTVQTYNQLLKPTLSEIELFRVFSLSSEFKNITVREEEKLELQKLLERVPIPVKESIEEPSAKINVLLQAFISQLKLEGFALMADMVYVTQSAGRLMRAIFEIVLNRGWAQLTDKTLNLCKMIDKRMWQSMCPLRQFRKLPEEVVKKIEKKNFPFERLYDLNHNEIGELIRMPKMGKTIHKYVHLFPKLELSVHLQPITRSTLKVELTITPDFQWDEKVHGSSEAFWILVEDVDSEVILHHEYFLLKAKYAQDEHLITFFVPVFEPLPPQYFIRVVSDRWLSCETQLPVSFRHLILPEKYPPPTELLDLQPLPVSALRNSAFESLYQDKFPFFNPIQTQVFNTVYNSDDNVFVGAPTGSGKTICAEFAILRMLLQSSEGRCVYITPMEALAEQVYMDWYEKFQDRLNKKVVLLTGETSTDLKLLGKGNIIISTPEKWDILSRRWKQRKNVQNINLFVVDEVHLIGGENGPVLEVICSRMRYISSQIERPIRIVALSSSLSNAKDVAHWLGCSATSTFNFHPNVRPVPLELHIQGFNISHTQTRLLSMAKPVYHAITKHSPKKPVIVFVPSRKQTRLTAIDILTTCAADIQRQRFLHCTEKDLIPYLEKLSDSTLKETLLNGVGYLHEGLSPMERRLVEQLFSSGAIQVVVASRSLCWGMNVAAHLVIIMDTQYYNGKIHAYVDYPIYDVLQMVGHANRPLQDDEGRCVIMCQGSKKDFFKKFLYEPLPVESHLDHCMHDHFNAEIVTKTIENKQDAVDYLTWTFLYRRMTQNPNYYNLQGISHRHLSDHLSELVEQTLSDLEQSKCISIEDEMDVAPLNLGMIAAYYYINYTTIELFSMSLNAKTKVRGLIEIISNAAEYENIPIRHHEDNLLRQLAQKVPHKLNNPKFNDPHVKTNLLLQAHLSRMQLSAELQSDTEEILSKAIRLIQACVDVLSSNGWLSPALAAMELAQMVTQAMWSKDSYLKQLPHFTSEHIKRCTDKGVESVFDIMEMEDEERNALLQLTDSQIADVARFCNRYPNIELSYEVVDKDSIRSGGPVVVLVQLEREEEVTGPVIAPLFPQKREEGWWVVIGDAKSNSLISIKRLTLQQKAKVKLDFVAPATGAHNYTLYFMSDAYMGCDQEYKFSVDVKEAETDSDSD
# UniProt P53007, whole entry, looked up: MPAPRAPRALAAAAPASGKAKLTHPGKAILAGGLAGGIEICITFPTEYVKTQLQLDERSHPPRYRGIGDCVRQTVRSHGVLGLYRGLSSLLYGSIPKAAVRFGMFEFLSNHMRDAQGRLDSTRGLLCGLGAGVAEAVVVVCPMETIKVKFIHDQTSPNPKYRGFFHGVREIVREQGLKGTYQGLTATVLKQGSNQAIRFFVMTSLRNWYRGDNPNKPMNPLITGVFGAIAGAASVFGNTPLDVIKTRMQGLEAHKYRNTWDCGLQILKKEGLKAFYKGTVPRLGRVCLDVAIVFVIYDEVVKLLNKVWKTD
# The other results are listed elsewhere or left out.
# Compound: COc1ccc(Cn2ccc3cc(C)c(C(=O)NO)cc32)cc1
# Experiment: dose-dependent thermal stabilisation call (2D-TPP, DLPTP, 10% FDR) (binary (1 = stabilised)); higher = stabilised by the compound
# Details: system: HL-60 intact cells; concentration range 0.04-10 µM
# Method: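 2D thermal proteome profiling in intact HL-60 cells treated with BRD-3811 (0, 0.04, 0.29, 2, 10 uM) for 90 min at 37 C, then heated 3 min at one of 12 temperatures (42-63.9 C). Soluble protein was quantified by TMT10 MS. The value is the DLPTP call of the paper: dose-dependent thermal stabilisation over all temperatures at 10% FDR (F-test of a dose-response against a flat model); one experiment, one call per tested protein.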
row,Target,dose-dependent thermal stabilisation call
1,SF3B2 (UniProt Q13435),inactive: 0
2,SLC25A4 (UniProt P12235),inactive: 0
3,SLC29A1 (UniProt Q99808),inactive: 0
4,SNAP23 (UniProt O00161),inactive: 0
5,SNTB1 (UniProt Q13884),inactive: 0
6,SLC35A3 (UniProt Q9Y2D2),inactive: 0
7,SKIV2L (UniProt Q15477),inactive: 0
8,SMS (UniProt P52788),inactive: 0
9,SLC26A2 (UniProt P50443),inactive: 0
10,SLC7A1 (UniProt P30825),inactive: 0
11,SMARCC1 (UniProt Q92922),inactive: 0
12,SLC25A12 (UniProt O75746),inactive: 0
13,SMC4 (UniProt Q9NTJ3),inactive: 0
14,SNX20 (UniProt Q7Z614),inactive: 0
15,SETD7 (UniProt Q8WTS6),inactive: 0
16,SLC9A7 (UniProt Q96T83),inactive: 0
17,SLC16A1 (UniProt P53985),inactive: 0
18,SFRS9 (UniProt Q13242),inactive: 0

row,Target,dose-dependent thermal stabilisation call
1,SLC25A20 (UniProt O43772),inactive: 0
2,SLC17A5 (UniProt Q9NRA2),inactive: 0
3,SLC30A7 (UniProt Q8NEW0),inactive: 0
4,SMAD4 (UniProt Q13485),inactive: 0
5,SLC35E3 (UniProt Q7Z769),inactive: 0
6,SFXN2 (UniProt Q96NB2),inactive: 0
7,SLC25A38 (UniProt Q96DW6),inactive: 0
8,SIRT3 (UniProt Q9NTG7),inactive: 0
9,SMARCAD1 (UniProt Q9H4L7),inactive: 0
10,SIPA1 (UniProt Q96FS4),inactive: 0
11,SLC4A1AP (UniProt Q9BWU0),inactive: 0
12,SFPQ (UniProt P23246),inactive: 0
13,SMARCB1 (UniProt Q12824),inactive: 0
14,SLC25A3 (UniProt Q00325),inactive: 0
15,SLC27A2 (UniProt O14975),inactive: 0
16,SNX30 (UniProt Q5VWJ9),inactive: 0
17,SNRNP200 (UniProt O75643),inactive: 0
18,SLC25A1 (UniProt P53007),inactive: 0

# Quoted from the listing.
# In dose-dependent thermal stabilisation call, SETD7 (UniProt Q8WTS6) has the entry inactive: 0
# In dose-dependent thermal stabilisation call, SNX20 (UniProt Q7Z614) has the entry inactive: 0
